Data as given in paper PMC12670160, “A drug-repurposing screen of FDA- and EMA-approved drugs identifies two NF-κB inhibitors active against eumycetoma” (Journal of Antimicrobial Chemotherapy, 2025).
Counter-ions that a name gives are not always drawn. Among all 5,300 compounds or so, about 130 (2.5%) showed an effect of 50% or more. Some of the results follow.

Each compound was assayed on M. mycetomatis strain mm55. Settings: primary screen, metabolic activity vs growth control; 96 h, 2 µM; inhibitor.

SMILES	% viability
CC1(COc2ccc(CC3SC(=O)NC3=O)cc2)CCCCC1 (stereo not shown) [ONC0000875, ciglitazone]	113.7%
CCCCc1ncc(/C=C(\Cc2cccs2)C(=O)O)n1Cc1ccc(C(=O)O)cc1 [ONC0004516, eprosartan mesylate]	73.08%
N[C@@H](Cc1ccc(O)c(O)c1)C(=O)O [ONC0005307, levodopa]	113.5%
C[N@@+]1(CC2CC2)CC[C@]23c4c5ccc(O)c4O[C@H]2C(=O)CC[C@@]3(O)[C@H]1C5 [ONC0001777, methylnaltrexone bromide]	112.6%
c1coc(-c2nnc3sc(C4CCCCC4)nn23)c1 [ONC0002694, cardionogen1]	66.72%
CN1CCN2c3ccccc3Cc3ccccc3C2C1 (stereo not shown) [ONC0005339, mianserin hydrochloride]	65.89%
CCCCCCCCOc1ccccc1C(=O)Nc1ccc(C(=O)OCC[N+](C)(CC)CC)cc1 [ONC0004831, otilonium bromide]	103.3%
C[C@@H](c1nc(-c2ccc(C#N)cc2)cs1)[C@](O)(Cn1cncn1)c1ccc(F)cc1F [Ravuconazole]	0.9972%
O=C(O)CCC(=O)c1ccc(-c2ccccc2)cc1 [ONC0003215, fenbufen]	83.01%
CC1(C)OC2(C)C(O)CC1CC2O (stereo not shown) [ONC0003817, epomediol]	42.26%
CC(OC(=O)NCC1(CC(=O)O)CCCCC1)OC(=O)C(C)C (stereo not shown) [ONC0003375, gabapentinenacarbil]	59.83%
COc1ccc(/C=C/C(=O)O)cc1 [ONC0003824, trans4methoxycinnamicacid]	65.15%
O=C1c2c(O)ccc(O)c2C(=O)c2c(NCCNCCO)ccc(NCCNCCO)c21 [ONC0003099, mitoxantrone hydrochloride]	70.36%
O=C(Nc1ccccc1)N[C@H]1C[C@H](C(=O)O)Nc2cc(Cl)cc(Cl)c21 [ONC0001416, l689560]	56.01%
CC(=O)O[C@H]1C[C@@H]2CC[C@@H]3[C@H](CC[C@@]4(C)[C@H]3C[C@H]([N+]3(C)CCCCC3)[C@@H]4OC(C)=O)[C@@]2(C)C[C@@H]1[N+]1(C)CCCCC1 [ONC0004633, pancuronium dibromide]	63.07%
CCOC(=O)c1ccc(NC2CCCCC2)c(N)c1 [ONC0000320, ferrostatin1]	39.11%
CO[C@H]1C[C@H](O[C@@H]2/C(C)=C/C[C@@H]3C[C@@H](C[C@]4(CC[C@H](C)[C@@H](C5CCCCC5)O4)O3)OC(=O)[C@@H]3C=C(C)/C(=N/O)[C@H]4OC/C(=C\C=C\[C@@H]2C)[C@]43O)O[C@@H](C)[C@@H]1O [ONC0002417, selamectin]	96.9%
CN1CCN(Cc2ccc(-c3cnc4[nH]cc(-c5ccc6[nH]ccc6c5)c4c3)cc2)CC1 [ONC0000994, urmc099]	71.46%
CC(C)(O)CC(=O)O.CC(C)(O)CC(=O)O [ONC0002971, betahydroxybetamethylbutyrate]	141.8%
O=C1C[C@@]2(C(=O)N1)C(=O)N(Cc1ccc(Br)cc1F)C(=O)c1cccn12 [ONC0002077, ranirestat]	79.29%
CCc1cc2c(c(CC)n1)CCC(=O)N2Cc1ccc(-c2ccccc2-c2nnn[nH]2)cc1 [ONC0001547, zd7155]	109.6%

SMILES	% viability
CCOC(=O)C1=C(C)NC(C)=C(C(=O)OC)C1c1cccc(Cl)c1Cl (stereo not shown) [ONC0003969, felodipine]	118%
COc1ccc(-c2oc3cc(OC)ccc3c2C(=O)c2ccc(C#N)cc2)cc1 [ONC0003731, ly320135]	107.3%
COC(=O)/C=C/C(=O)OC [ONC0005346, dimethyl fumarate]	122.8%
O=C(NNc1nc2cc(F)ccc2n2cccc12)c1cnccn1 [ONC0005161, sc144]	101.7%
CC(C)(C)NC[C@H](O)COc1cccc2c1CCCC2=O [ONC0002946, levobunolol]	70.13%
COc1ccc(S(=O)(=O)N2CCCN(S(=O)(=O)c3ccc(OC)c(OC)c3)CC2)cc1OC [ONC0002341, sb756050]	63.57%
CC(C)c1cc(C(C)C)c(CC(=O)NS(=O)(=O)Oc2c(C(C)C)cccc2C(C)C)c(C(C)C)c1 [ONC0005210, avasimibe ci1011]	127%
CC(C)c1cc(CNc2nc(Nc3cc(C4CC4)[nH]n3)cc(N3CCN(C)CC3)n2)on1 [ONC0000976, xl228]	85.75%
C[N+](C)(C)CCOC(N)=O [ONC0000782, carbachol]	56.18%
O=C(NC(Cc1cc(=O)[nH]c2ccccc12)C(=O)O)c1ccc(Cl)cc1 (stereo not shown) [ONC0003985, rebamipide]	70.5%
CC(C)(O)CC(=O)NCCn1ccc2ncnc(Nc3ccc(Oc4cccc(C(F)(F)F)c4)c(Cl)c3)c21 [ONC0004332, tak285]	87.28%
CCC1(C)CC(=O)NC1=O (stereo not shown) [ONC0004181, ethosuximide]	56.87%
CC(=O)Nc1ccc(OC(C)=O)cc1 [ONC0004277, diacetamate]	91.81%
NC1CCN(c2c(F)cc3c(=O)c(C(=O)O)cn(C4CC4)c3c2Cl)C1 (stereo not shown) [ONC0005238, clinafloxacin pd127391]	132.9%
NC[C@@H]1O[C@H](O[C@H]2[C@@H](O)[C@H](O[C@@H]3[C@@H](O)[C@H](N)C[C@H](N)[C@H]3O[C@H]3O[C@H](CN)[C@@H](O)[C@H](O)[C@H]3N)O[C@@H]2CO)[C@H](N)[C@@H](O)[C@@H]1O [ONC0000406, neomycin trisulfate]	75.91%
CSc1nc(N)cc(Oc2ccc(-c3nnc(Nc4cccc(C(F)(F)F)c4)[nH]3)cc2)n1 [ONC0001386, kg5]	120.8%
N=C(NCCC[C@H](N)C(=O)O)N[N+](=O)[O-] [ONC0002157, ngnitroarginine]	67.67%
Cc1c(C(=O)N2CCOc3ccc(-c4ccc(N)nc4)cc3C2)ccc(S(C)(=O)=O)c1F [ONC0005106, xl388]	97.48%
CCCNC(C)(C)COC(=O)c1ccccc1 [ONC0004176, meprylcaine hydrochloride]	98.91%
c1ccc2c(c1)Nc1ccccc1S2 [ONC0005312, phenothiazine]	78.68%
O=c1c2ccccc2[se]n1-c1ccccc1 [ONC0000594, ebselen]	96.79%

SMILES	% viability
CN1CCN(c2ccc3[nH]c(-c4ccc5[nH]c(-c6ccc(O)cc6)nc5c4)nc3c2)CC1 [ONC0002045, hoechst 33258]	68.81%
CC(C)n1c(/C=C/[C@@H](O)C[C@@H](O)CC(=O)O)c(-c2ccc(F)cc2)c2ccccc21 (racemic) [ONC0004817, fluvastatin sodium lescol]	110.8%
COc1cc2nc(N3CCCN(C)CC3)nc(NC3CCN(Cc4ccccc4)CC3)c2cc1OC [ONC0004534, bix 01294]	44.63%
O=S(=O)(c1cccc2cnccc12)N1CCCNCC1 [ONC0003236, fasudil hydrochloride]	118.7%
O=C(c1ccc(F)c(F)c1Nc1ccc(I)cc1F)N1CC(O)([C@@H]2CCCCN2)C1 [ONC0000874, cobimetinib]	66.72%
CCc1nn(CCCN2CCN(c3cccc(Cl)c3)CC2)c(=O)n1CCOc1ccccc1 [ONC0004090, nefazodone hydrochloride]	102.1%
CCCN(CCC)C1Cc2cc(OC)c(OC)cc2C1 [ONC0001711, u99194]	83.59%
CC(C)c1cnn2c(NCc3ccccc3)cc(NCCCCCCN)nc12 [ONC0001480, bs181]	57.04%
COc1ccn2ncc(-c3nc4[nH]nc(NC(=O)c5ccc(F)cc5)c4cc3F)c2c1 [ONC0003626, cw008]	77.3%
Cc1ccc(/N=C/N(C)/C=N/c2ccc(C)cc2C)c(C)c1 [ONC0004157, amitraz]	109%
N[C@@H](CC(=O)N1CCn2c(nnc2C(F)(F)F)C1)Cc1n[nH]c2c(F)c(F)ccc12 [ONC0001660, pk44 phosphate]	33.36%
C[N+]1(C)C2CCC1CC(OC(=O)C(CO)c1ccccc1)C2 (stereo not shown) [ONC0003986, methylatropine nitrate]	73.02%
O=C(Nc1ccccc1)C12CC1/C(=N\O)c1ccccc1O2 (stereo not shown) [ONC0001426, phccc]	99.74%
CC(=O)Oc1ccc(C(c2ccc(OC(C)=O)cc2)c2ccccn2)cc1 [ONC0003223, bisacodyl]	92.7%
CCOC(=O)CC(=O)N1CCSC1COc1ccccc1OC (stereo not shown) [ONC0004529, moguisteine]	69.36%
CCNC1(C(N)=O)CCN(c2ncnc3c2nc(-c2ccccc2Cl)n3-c2ccc(Cl)cc2)CC1 [ONC0000945, otenabant]	64.14%
COc1ccc(C2Sc3ccccc3N(CCN(C)C)C(=O)C2OC(C)=O)cc1 (stereo not shown) [ONC0005348, diltiazem hydrochloride]	61.39%
O=C(CSc1nc2c(c(=O)n1-c1ccccc1)SCC2)Nc1ccc(-c2ccccc2)cn1 [ONC0005176, iwp l6]	95.67%
